Conditions: for final drug-to-lipid molar ratio: after loading; for loading efficiency into liposomes: drug:lipid molar ratio 1:4.6, 75 °C, 1 h; for efficiency of internal conversion to the water-soluble (-G^W) form: inside liposomes, after 1 h

| SMILES | final drug-to-lipid molar ratio [%] | loading efficiency into liposomes [%] | efficiency of internal conversion to the water-soluble (-G^W) form [%] |
| --- | --- | --- | --- |
| CCC1(O)C(=O)OCc2c1cc1n(c2=O)Cc2cc3c(NC(=O)OCc4ccc(OC5OC(C(=O)O)C(O)C(O)C5O)cc4)cccc3nc2-1 [9AC-G^W, 9-aminocamptothecin-β-D-glucuronide] | 14.9 | 71.3 | 96.6 |
| CCC1(O)C(=O)OCc2c1cc1n(c2=O)Cc2c-1nc1ccc(OCc3ccc(OC4OC(C(=O)O)C(O)C(O)C4O)c([N+](=O)[O-])c3)c3c1c2CCC3 [BQC-G^W, 5,6-dihydro-4H-benzo[de]quinoline-camptothecin-β-D-glucuronide] | 12.1 | 56.2 | 99.6 |

— paper PMC5945669, “Reversible glycosidic switch for secure delivery of molecular nanocargos” (Nature Communications, 2018)
